In US5721234A, “Glutamate receptor antagonists: fused cycloalkylouinoxalinediones” (Warner-Lambert Company, priority 1995, dated 1998):
At least one structure is not confirmed: it was looked up by name or label, or the drawing left a doubt.

Tests used:
[1] = biological target: kainate site (non-NMDA receptor); assay: Kainate site (non-NMDA receptor) binding affinity (London and Coyle)
[2] = biological target: AMPA receptors; assay: AMPA receptor binding affinity (Honore et al.)
[3] = Table 1, cyclohexyl-fused analogs
[4] = Table 2, cyclopentyl-fused analogs

SMILES | IC50 [1, 3] | IC50 [2, 3] | IC50 [1, 4] | IC50 [2, 4]
O=C(CCc1ccc(O)cc1)NC1CCc2c([N+](=O)[O-])cc3[nH]c(=O)c(=O)[nH]c3c2C1 (stereo not drawn) [Example 41, 2-(6-nitro-2,3-dioxo-1,2,3,4,7,8,9,10-octahydrobenzo[f]quinoxaline-9-ylcarbamoyl)ethyl-(4-hydroxy)benzene] | 1.4 µM | 0.96 µM | – | –
O=C(Cc1c[nH]c2ccccc12)NC1Cc2c([N+](=O)[O-])cc3[nH]c(=O)c(=O)[nH]c3c2C1 (stereo not drawn) [Example 66, 2-(1H-Indol-3-yl)-N-(6-nitro-2,3-dioxo-2,3,4,7,8,9-hexahydro-1H-cyclopenta[f]quinoxalin-8-yl)-acetamide] | – | – | 2.3 µM | 1.3 µM
O=C(NC1CCc2c([N+](=O)[O-])cc3[nH]c(=O)c(=O)[nH]c3c2C1)C1CCCCC1 (stereo not drawn) [Example 37, N-(6-nitro-2,3-dioxo-1,2,3,4,7,8,9,10-octahydrobenzo[f]quinoxalin9-yl)cyclohexylamide] | 1.4 µM | 1.1 µM | – | –
